# From publication PMC3988174
# Sequences of proteins named here, by UniProt entry; tags and fusion partners are left off. Residues count along the entry.
# UniProt Q9S7H1: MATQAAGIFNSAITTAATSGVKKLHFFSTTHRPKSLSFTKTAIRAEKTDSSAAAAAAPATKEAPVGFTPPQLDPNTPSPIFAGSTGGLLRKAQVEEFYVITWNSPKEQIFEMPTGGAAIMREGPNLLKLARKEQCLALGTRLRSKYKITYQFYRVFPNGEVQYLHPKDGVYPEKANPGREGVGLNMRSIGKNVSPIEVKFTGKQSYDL
# UniProt Q9SUI4: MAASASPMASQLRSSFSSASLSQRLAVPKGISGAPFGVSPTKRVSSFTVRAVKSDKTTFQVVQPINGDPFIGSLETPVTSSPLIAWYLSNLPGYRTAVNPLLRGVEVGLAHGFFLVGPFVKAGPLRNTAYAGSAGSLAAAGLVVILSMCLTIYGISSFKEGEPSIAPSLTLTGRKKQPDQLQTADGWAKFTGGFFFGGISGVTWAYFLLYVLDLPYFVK
# UniProt Q38814: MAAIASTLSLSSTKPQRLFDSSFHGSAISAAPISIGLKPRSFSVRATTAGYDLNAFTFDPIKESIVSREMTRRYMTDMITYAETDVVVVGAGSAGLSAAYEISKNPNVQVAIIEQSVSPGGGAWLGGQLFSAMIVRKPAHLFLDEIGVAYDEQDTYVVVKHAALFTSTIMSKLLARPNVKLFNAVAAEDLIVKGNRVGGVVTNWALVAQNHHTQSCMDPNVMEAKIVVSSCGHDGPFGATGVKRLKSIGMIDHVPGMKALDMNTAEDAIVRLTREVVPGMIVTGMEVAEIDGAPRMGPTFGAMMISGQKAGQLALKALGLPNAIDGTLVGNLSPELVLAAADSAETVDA
# UniProt P31167: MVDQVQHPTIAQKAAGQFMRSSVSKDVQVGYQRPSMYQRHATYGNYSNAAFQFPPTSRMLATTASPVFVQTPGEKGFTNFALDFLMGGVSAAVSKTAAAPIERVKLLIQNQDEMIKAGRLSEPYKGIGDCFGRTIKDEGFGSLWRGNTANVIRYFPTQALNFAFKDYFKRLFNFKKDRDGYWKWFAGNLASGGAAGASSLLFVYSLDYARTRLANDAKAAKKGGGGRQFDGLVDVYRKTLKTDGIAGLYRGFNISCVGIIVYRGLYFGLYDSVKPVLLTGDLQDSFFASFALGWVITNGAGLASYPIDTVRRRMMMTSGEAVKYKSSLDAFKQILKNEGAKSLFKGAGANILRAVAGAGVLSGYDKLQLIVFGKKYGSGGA
# UniProt P47998: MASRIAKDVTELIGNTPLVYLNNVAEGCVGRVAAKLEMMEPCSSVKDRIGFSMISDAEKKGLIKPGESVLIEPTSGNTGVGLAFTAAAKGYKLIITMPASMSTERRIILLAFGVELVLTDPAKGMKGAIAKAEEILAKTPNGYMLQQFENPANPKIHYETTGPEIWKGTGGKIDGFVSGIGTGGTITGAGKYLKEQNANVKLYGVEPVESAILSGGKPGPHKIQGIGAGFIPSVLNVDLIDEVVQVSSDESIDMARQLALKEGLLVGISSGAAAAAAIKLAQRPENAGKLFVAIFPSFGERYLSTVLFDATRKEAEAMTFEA
# UniProt Q8H0W0: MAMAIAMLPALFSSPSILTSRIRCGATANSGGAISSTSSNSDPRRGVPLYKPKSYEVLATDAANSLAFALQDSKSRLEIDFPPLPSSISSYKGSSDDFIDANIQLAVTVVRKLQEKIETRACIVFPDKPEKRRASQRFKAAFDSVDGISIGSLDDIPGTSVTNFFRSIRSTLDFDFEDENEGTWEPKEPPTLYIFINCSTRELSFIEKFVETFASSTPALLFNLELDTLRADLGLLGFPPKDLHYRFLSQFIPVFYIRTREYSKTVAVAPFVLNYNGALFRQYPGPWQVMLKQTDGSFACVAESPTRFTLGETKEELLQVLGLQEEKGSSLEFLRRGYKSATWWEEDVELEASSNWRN
# UniProt Q01667: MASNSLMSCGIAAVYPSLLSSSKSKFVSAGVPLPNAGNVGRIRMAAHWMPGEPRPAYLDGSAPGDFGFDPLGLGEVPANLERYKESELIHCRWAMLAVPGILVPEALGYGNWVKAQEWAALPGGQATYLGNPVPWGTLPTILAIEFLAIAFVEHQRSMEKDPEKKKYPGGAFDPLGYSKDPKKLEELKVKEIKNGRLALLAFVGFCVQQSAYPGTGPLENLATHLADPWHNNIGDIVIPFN
# UniProt Q9SYW8: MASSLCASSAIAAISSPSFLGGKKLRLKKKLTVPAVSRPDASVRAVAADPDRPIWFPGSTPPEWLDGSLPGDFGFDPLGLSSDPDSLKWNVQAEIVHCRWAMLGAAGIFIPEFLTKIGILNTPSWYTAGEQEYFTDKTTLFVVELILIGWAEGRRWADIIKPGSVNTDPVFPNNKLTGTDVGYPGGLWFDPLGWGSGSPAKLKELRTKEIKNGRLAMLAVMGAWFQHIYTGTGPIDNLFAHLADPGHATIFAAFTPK
# UniProt Q9SY97: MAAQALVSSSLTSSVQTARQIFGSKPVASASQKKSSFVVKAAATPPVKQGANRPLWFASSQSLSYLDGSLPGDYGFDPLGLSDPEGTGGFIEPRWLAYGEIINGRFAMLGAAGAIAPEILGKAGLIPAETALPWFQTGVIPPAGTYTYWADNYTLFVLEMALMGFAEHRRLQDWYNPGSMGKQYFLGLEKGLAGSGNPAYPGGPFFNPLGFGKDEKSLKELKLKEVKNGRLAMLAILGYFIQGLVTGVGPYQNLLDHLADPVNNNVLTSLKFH
# UniProt Q9S7N7: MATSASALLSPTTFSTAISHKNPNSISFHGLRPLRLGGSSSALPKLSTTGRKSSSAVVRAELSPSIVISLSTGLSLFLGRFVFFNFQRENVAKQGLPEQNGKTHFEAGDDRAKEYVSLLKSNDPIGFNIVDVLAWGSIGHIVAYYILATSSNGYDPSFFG
# UniProt Q42029: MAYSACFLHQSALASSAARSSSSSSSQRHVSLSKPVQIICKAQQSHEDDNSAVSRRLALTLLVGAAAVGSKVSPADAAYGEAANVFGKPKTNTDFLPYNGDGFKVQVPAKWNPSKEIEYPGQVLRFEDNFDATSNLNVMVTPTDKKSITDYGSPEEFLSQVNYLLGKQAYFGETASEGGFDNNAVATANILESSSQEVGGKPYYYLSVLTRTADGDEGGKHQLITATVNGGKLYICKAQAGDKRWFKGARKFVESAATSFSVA
# UniProt P00375: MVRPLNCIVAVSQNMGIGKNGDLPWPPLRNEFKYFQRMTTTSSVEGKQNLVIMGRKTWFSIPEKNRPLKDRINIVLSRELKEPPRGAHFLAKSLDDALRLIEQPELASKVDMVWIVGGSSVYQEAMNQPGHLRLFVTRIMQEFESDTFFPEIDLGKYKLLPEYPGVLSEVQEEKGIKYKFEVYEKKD
# UniProt O81283, residues 1-1092: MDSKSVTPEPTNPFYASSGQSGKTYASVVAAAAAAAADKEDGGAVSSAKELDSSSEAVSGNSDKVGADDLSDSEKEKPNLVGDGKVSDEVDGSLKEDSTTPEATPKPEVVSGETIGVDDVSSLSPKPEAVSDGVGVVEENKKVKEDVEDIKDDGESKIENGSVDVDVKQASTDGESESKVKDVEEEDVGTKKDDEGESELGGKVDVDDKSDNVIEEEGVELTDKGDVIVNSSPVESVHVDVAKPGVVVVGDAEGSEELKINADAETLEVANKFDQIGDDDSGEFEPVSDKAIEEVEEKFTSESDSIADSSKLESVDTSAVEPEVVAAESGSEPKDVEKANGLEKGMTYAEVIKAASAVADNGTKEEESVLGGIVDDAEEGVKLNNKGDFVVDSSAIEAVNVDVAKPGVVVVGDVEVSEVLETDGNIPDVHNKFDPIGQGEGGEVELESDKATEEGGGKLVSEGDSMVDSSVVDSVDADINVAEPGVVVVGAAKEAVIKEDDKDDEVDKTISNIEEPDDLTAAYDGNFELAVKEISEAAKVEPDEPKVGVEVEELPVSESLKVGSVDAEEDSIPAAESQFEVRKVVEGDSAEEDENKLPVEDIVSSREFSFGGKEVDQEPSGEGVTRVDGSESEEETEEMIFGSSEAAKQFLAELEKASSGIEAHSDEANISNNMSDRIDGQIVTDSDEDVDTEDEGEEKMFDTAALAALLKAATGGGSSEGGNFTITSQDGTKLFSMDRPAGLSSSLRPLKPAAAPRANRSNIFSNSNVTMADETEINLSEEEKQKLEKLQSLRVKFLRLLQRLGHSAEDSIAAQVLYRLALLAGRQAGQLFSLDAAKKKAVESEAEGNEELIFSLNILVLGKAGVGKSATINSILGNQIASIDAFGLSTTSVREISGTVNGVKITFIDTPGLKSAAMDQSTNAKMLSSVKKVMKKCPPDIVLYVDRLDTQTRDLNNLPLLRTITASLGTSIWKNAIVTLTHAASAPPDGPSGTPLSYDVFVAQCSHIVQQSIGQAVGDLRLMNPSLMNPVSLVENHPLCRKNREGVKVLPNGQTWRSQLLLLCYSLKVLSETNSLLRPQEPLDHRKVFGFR
# Results are given in words; binding and its absence hold for the method and conditions named. For part of these data: In cells and extracts the contact can be indirect. Some results given as binding are weak or reduced against the parent protein; the word gives no strength.
# Molecular target: atToc132 A- plus G-domains bait (Arabidopsis thaliana) (UniProt Q9SLF3)
# Experiment: two-hybrid; pairwise split-ubiquitin yeast two-hybrid of isolated NubG-preys with Toc159G, Toc132G or Toc132AG bait in NMY51; growth on SD-LWHA (3-AT) and quantitative β-Gal assay, activity relative to a reference bait set to 100%
row,Substance,binding
1,Photosystem I subunit D-1 (from UniProt Q9S7H1 1-208),binds
2,Photosystem I subunit L (from UniProt Q9SUI4 1-219),binds
3,THI1 -involved in thiamine synthesis (vitamin B) (from UniProt Q38814 1-349),binds

# Molecular target: atToc132 A- plus G-domains bait (Arabidopsis thaliana) (UniProt Q9SLF3)
# Experiment: two-hybrid; split-ubiquitin membrane-based yeast two-hybrid library screen in S. cerevisiae NMY51; bait fused to Cub-LexA-VP16 (pBT3-STE), Arabidopsis seedling cDNA library preys fused to NubG; selection on SD-LWHA with 3-AT; hits re-streaked, retransformed with the same bait, X-Gal filter assay
row,Substance,binding
1,ATP carrier protein 1 (from UniProt P31167 1-381),binds
2,Cysteine synthase (from UniProt P47998 1-322),binds
3,Low PSII accumulation 3 protein (from UniProt Q8H0W0 1-358),binds
4,Photosystem I light harvesting complex gene 1 (from UniProt Q01667 1-241),binds
5,Photosystem I light harvesting complex gene 2 (from UniProt Q9SYW8 1-257),binds
6,Photosystem I light harvesting complex gene 3 (from UniProt Q9SY97 1-273),binds
7,Photosystem I subunit G (from UniProt Q9S7N7 1-160),binds
8,Photosystem II Subunit P-1 (from UniProt Q42029 1-263),binds
9,Photosystem II light harvesting complex gene 2.1 (from UniProt Q9SHR7 1-265),binds
10,Photosystem II light harvesting complex protein 2.3 (from UniProt Q9XF87 1-266),binds

# Molecular target: DHFRHis (UniProt P00375)
# Experiment: pull-down; solid phase binding assay: His-tagged TP-DHFR or DHFR immobilised on Ni-NTA resin (up to 800 pmol), incubated with 35S-labelled in vitro translated receptor, 25°C, 30 min, 50 mM Hepes-KOH pH 7.5, 5 mM MgCl2, 40 mM KOAc, 0.1% Triton X-100, 40 mM imidazole, 0.1 mM GTP; phosphorimager; only the target purified
row,Substance,binding
1,[35S]atToc132AG (from UniProt Q9SLF3 1-794) (domain or fragment),no binding (tested: 800 pmol)
2,[35S]atToc159AG (from UniProt O81283 1-1092) (domain or fragment),no binding (tested: 800 pmol)
